# The campaign covered roughly 340,000 compounds. About 4,500 (1.3%) were called active. The shares of active, inactive and inconclusive entries below differ from those in the screen. The call rests on the fitted dose curve; in most records, active means well fitted inhibition curve with a large enough effect; inconclusive means small, poorly fitted or top-dose-only effect, or another doubt; inactive means no such curve, though single readings can be large or run the other way. Potencies beside an inconclusive call are fits to weak or partial responses and may not hold up.
# Target: DNA polymerase beta (Homo sapiens) (UniProt P06746)
# Assay: qHTS Assay for Inhibitors of DNA Polymerase Beta
# Settings: Pol beta primer extension/strand displacement, fluorescence kinetic; activity change, negative = inhibition: at 114 µM (top of the series)
# How it was run: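 Curves were derived by four-parameter Hill fits of normalized qHTS data. The kinetic fluorescent primer-extension read was taken at 0 and 10 min after 50 nM substrate, following a 15 min room-temperature preincubation of 10 nM enzyme with compounds.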
# On the % scale 0 is the no-effect control and ±100 the full control effect; potency means the concentration at half of the fitted maximal effect.
Structure (SMILES),Potency,"activity change, negative = inhibition"
CC(C)c1ccc(NS(=O)(=O)c2ccc3[nH]cc(C(=O)N4CCC(C(N)=O)CC4)c(=O)c3c2)cc1,active: 50.1 µM,
CN(Cc1ccco1)S(=O)(=O)c1nnc(NC(=O)c2ccccc2)s1,"inconclusive: 56.2 µM [inhibitor, single point]",
CCc1cccc(NC(=O)Cn2ccn3nc(-c4ccc(OC)c(OC)c4)cc3c2=O)c1,"inconclusive: 7.94 µM [inhibitor, full curve]",
CCOC(=O)CS(=O)(=O)c1nc(-c2ccccc2)cc(C(F)(F)F)n1,inactive,
CCOc1ccc(NC(=O)c2nnn(-c3ccc(F)c(Cl)c3)c2C)cc1,inactive,
COC(=O)C(Cc1ccccc1)NC(=O)CCCC(=O)NCc1cccc(OC)c1 (centres undefined),"inconclusive: 100 µM [inhibitor, single point]",
O=C(CSc1nc2ccccc2o1)Nc1ccc(Cl)cc1,"inconclusive: 89.1 µM [inhibitor, single point]",
Cc1ccc(S(=O)(=O)C(CNC(=O)c2ccc(C(F)(F)F)cc2)c2ccco2)cc1 (centres undefined),"inconclusive: 89.1 µM [inhibitor, single point]",
O=C(NC1CC1)C1=C[C@H](c2c[nH]c3ccccc23)C[C@H](OCCCCO)O1,inactive,
CC(C)(C)c1ccc(C(=O)NNC(=O)c2ccc(Cl)cc2)cc1,"inconclusive: 35.5 µM [inhibitor, full curve]",
Cc1ccc(/C=C/c2nc3sc(C(=O)O)c(C)c3c(=O)[nH]2)cc1[N+](=O)[O-],"inconclusive: 63.1 µM [inhibitor, partial curve, poor fit]",
COc1cccc(-c2nc(SCC(=O)NCC3CCCO3)c(-c3ccc(Cl)cc3)[nH]2)c1 (centres undefined),inactive,
Cc1ccc(/C=N/n2c(-c3ccccc3)n[nH]c2=S)cc1,inactive,
Cc1nnc(N2C(=O)C(O)=C(C(=O)c3ccco3)C2c2cccc([N+](=O)[O-])c2)s1 (centres undefined),inactive,
Cc1ccc(C(=O)Nc2ccc3oc(-c4cc(Br)ccc4Cl)nc3c2)cc1,,inconclusive: -46.8% [inhibitor]
O=c1cc2nc(-c3ccccc3)nc(SCCOc3ccc(Cl)cc3)n2[nH]1,active: 20 µM,
COc1ccc(C(=O)Nc2ccc3oc(-c4cc(Cl)ccc4Cl)nc3c2)cc1Br,,inconclusive: -92.3% [inhibitor]
O=C(COC(=O)c1cnccn1)Nc1cccc2ccccc12,"inconclusive: 1.78 µM [inhibitor, full curve]",
Cc1noc(NS(=O)(=O)c2ccc(NC(=O)Nc3ccc(Cl)c(Cl)c3)cc2)c1C,"inconclusive: 44.7 µM [inhibitor, partial curve]",
O=C(COc1ccc(Cl)cc1)Nc1ccc2c(c1)nc1n2CCOC1,"inconclusive: 50.1 µM [inhibitor, single point]",
O=C(CSc1cccc2cccc(Cl)c12)OCC(=O)N1CCN(C(=O)c2ccco2)CC1,"inconclusive: 44.7 µM [inhibitor, partial curve]",
Cc1ccc(NC(=O)Cc2ccccc2Cl)cc1S(=O)(=O)N(C)C,"inconclusive: 89.1 µM [inhibitor, single point]",

Structure (SMILES),Potency,"activity change, negative = inhibition"
CN(CCCNC(=O)c1cc2c(=O)n(C)c3ccccc3c2s1)Cc1ccccc1,"inconclusive: 25.1 µM [inhibitor, single point]",
COc1ccc(N2CCN(C(=O)c3ccc(N4CCCCS4(=O)=O)cc3)CC2)cc1,,inconclusive: -49.1% [inhibitor]
O=C(CCC(=O)N1CCN(c2ccc(F)cc2)CC1)c1ccc(Cl)cc1,"inconclusive: 1.12 µM [inhibitor, single point]",
Oc1ccc(Nc2nc(-c3cccnc3)cs2)cc1,inactive,
Nc1nc(N2CCOCC2)cc(=O)[nH]1,"inconclusive: 44.7 µM [inhibitor, partial curve]",
CCC(CC)c1nnc(NC(=O)Cc2cccs2)s1,"inconclusive: 15.8 µM [inhibitor, full curve]",
Cc1c(C(=O)/C=C/N(C)C)nnn1-c1ccc(F)c(Cl)c1,"inconclusive: 89.1 µM [inhibitor, single point]",
CC(Oc1ccccc1)c1ccnc(N)n1 (centres undefined),"inconclusive: 89.1 µM [inhibitor, single point]",
N#CCSc1nnc(-c2ccc(S(=O)(=O)N3CCOCC3)cc2)n1CC1CCCO1 (centres undefined),"inconclusive: 0.631 µM [inhibitor, full curve, poor fit]",
COc1ccc(C(CCN2CCCC(C)C2)c2c(OC)cc(OC)c3c(-c4ccccc4)cc(=O)oc23)cc1 (centres undefined),"inconclusive: 89.1 µM [inhibitor, single point]",
Nc1ncnc2c1cnn2C1CCCCC1,inactive,
CN1C(=O)S/C(=C/c2ccccc2OCc2ccc(C(=O)O)cc2)C1=O,inactive,
COc1cccc(Cn2c(=O)n(CCc3ccccc3)c(=O)c3c2c2cc(OC)ccc2n3C)c1,inactive,
Cc1ccc(Cl)cc1NC(=O)C1CCN(S(=O)(=O)c2cccc3nonc23)CC1,"inconclusive: 50.1 µM [inhibitor, partial curve]",
O=C(Nc1nnc(SCc2cccnc2)s1)C1CC(=O)N(c2ccc(F)cc2)C1 (centres undefined),"inconclusive: 31.6 µM [inhibitor, full curve]",
CCOC(=O)c1c(NC(=O)c2c(C(=O)O)cccc2[N+](=O)[O-])sc2c1CCCC2,"inconclusive: 79.4 µM [inhibitor, single point]",
COc1ccc(Cc2nnc(Nc3ccc(Cl)cc3)[nH]c2=O)cc1,,inconclusive: -30.2% [inhibitor]
CC(=O)c1cccc(NC(=O)c2ccc(NC(=O)CC3SC(N4CCCCC4)=NC3=O)cc2)c1 (centres undefined),"inconclusive: 70.8 µM [inhibitor, single point]",
Nc1nnc(/C=C/c2ccccc2)s1,"inconclusive: 1.26 µM [inhibitor, full curve]",
COc1ccc(O)c(C=Nc2cc(NC(C)=O)c(Cl)cc2Cl)c1,inactive,
O=C(OCC(=O)N1CCN(c2ccccc2)CC1)c1ccc2ncsc2c1,active: 89.1 µM,
O=C1C=C(Nc2cccc(Cl)c2)CC(c2ccco2)C1 (centres undefined),"inconclusive: 89.1 µM [inhibitor, single point]",

# 3 compounds already listed, ordered by formula weight, high to low.
Structure (SMILES),Potency,"activity change, negative = inhibition"
COc1ccc(C(CCN2CCCC(C)C2)c2c(OC)cc(OC)c3c(-c4ccccc4)cc(=O)oc23)cc1 (centres undefined),"inconclusive: 89.1 µM [inhibitor, single point]",
O=C(OCC(=O)N1CCN(c2ccccc2)CC1)c1ccc2ncsc2c1,active: 89.1 µM,
O=C(CCC(=O)N1CCN(c2ccc(F)cc2)CC1)c1ccc(Cl)cc1,"inconclusive: 1.12 µM [inhibitor, single point]",
